## Results of single-concentration screens

Source: ChEMBL document CHEMBL3988442, “University of Dundee, Small-Polar-MMV Screening Library” (2021).

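Assay of Toxoplasma gondii numbers, read through their beta-galactosidase reporter with a colour substrate. Concentration: 50 µM. The record gives no direction; the compounds picked for IC50 retests had high values, so higher reads as fewer parasites. Of about 18,000 compounds tested this way, about 170 (0.94%) reached 50% or more in at least one test.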

Each number is a percent effect as filed. How 0% and 100% were set is not recorded. Most values in the screen are low, and negative values occur. The compounds are a random part of those screened.

| SMILES | percent effect |
|---|---|
| `CCc1nnc(N)o1` | 6.915% |
| `C[C@H](c1ccc(Cl)cc1)n1c(CCN)n[nH]c1=O` | -6.197% |
| `OCc1ccccc1OCCn1ccnc1` | 9.513% |
| `CCn1nnc2cc(C(=O)NCCCN(C)C)ccc21` | -11.5% |
| `COCCN1CCN(S(=O)(=O)c2ccn(C)c2)CC1` | 3.257% |
| `CC(CC#N)NS(=O)(=O)Cc1ccc(F)cc1` (configuration not stated) | -1.992% |
| `Cc1cc(=O)cc(C(=O)NCCC(C)n2ccnc2)o1` (configuration not stated) | 85.97% |
| `CC(C)N1CCN(C(=O)c2n[nH]c3c2CCCC3)CC1` | -56.07% |
| `COC(=O)n1ncc(C#N)c1N` | -12.52% |
| `COc1cc(-c2cc(N)n[nH]2)cc(OC)c1OC` | -18.52% |
| `c1ccc2ncc(-c3nc4c([nH]3)CCNC4)cc2c1` | -7.738% |
| `Cc1ccncc1NC(=O)CCCc1ccccn1` | 17.44% |
| `CCO[C@H]1CN(Cc2ccc3c(c2)CCO3)C[C@@H]1O` | 17.73% |
| `CCn1ccc(CN2CCC(NS(C)(=O)=O)CC2)n1` | -0.2057% |
| `N#Cc1ccc(C(=O)N2CCCO2)cc1` | 15.84% |
| `NCCCc1nc(-c2ccccn2)cs1` | -14.63% |
| `CN1CCN(C(=O)c2cnsn2)c2ccccc21` | -2.181% |
| `CC(C(=O)Nc1ccc(C(N)=O)cc1)N1CCCC1` (configuration not stated) | 0.6376% |
| `N[C@H]1CN(C(=O)COCc2ccccc2)C[C@@H]1C1CC1` | -10.95% |
| `COCC1(C(=O)NC(Cn2ccnc2)C(C)(C)C)CC1` (configuration not stated) | -4.815% |
| `O=C(c1cc(Br)c[nH]1)N1CCN2CCCCC2C1` (configuration not stated) | 14.23% |
| `CC1(C)NCCC1O` (configuration not stated) | -4.293% |
| `O=S1(=O)CCCC1CNC1CCSCC1` (configuration not stated) | 7.208% |
| `COc1cc(OC)c(S(N)(=O)=O)c(OC)c1` | -4.057% |
| `CN(Cc1cc(=O)n2ccsc2n1)C1CCSCC1` | 1.85% |
| `Cn1cc(NC(=O)C2=Cc3ccccc3OC2)cn1` | -3.128% |
| `Fc1cccnc1NCc1cccc2c1OCCCO2` | -8.416% |
| `Cn1cc(Br)cc1C(=O)NCC1CCCO1` (configuration not stated) | -27.05% |
| `CC(OC(=O)CCNS(=O)(=O)c1ccccc1)C(N)=O` (configuration not stated) | -5.256% |
| `COc1ccccc1NC(=O)c1c(Br)cnn1C` | -0.3391% |
| `C[C@H](NC(=O)c1cc(C(F)(F)F)ccc1F)C(N)=O` | 6.647% |
| `CN(C)C(CNC(=O)c1cnn(C)c1)c1ccsc1` (configuration not stated) | 4.757% |
| `CCC(C(=O)NCc1n[nH]c(N)n1)n1cccn1` (configuration not stated) | 1.143% |
| `COCCNc1ccc(OC)c(OC)c1` | -1.389% |
| `CC(C(=O)Nc1ccc(C#N)cc1)N1CCOCC1` (configuration not stated) | 5.802% |
| `CN(CC1CCOCC1)C(=O)CSc1nnc(N)s1` | 4.801% |
| `Cc1nc(COc2ccc(C(=O)OCC#N)cc2)no1` | 3.555% |
| `COC(=O)C(C)(CNC(C)=O)c1ccccc1` (configuration not stated) | 1.431% |
| `CN(C)C(=O)c1csc(-c2ccccc2)n1` | -4.21% |
| `CN(C)c1cc(CNC(=O)CC2C=CCC2)ccn1` (configuration not stated) | -0.07762% |
| `N#Cc1ccc(-n2ccc(N)n2)c(F)c1` | -10.87% |
| `O=C(NCc1ccc2c(c1)OCO2)n1ccnc1` | 96.82% |
| `CCOc1cccc(NC(=O)c2ccoc2)n1` | -12.53% |
| `Cc1ccc(C(=O)N(C)C)cc1F` | 18.23% |
| `O=C1NC(=O)c2cc(F)c(F)cc21` | -5.998% |
| `CN(CC(O)CN1CCOCC1)C1CCCCC1` (configuration not stated) | -3.18% |
| `CC(C)NC(=O)Nc1ccc(N(C)C)nc1` | 8.15% |
| `CC(C)C(O)CCNS(=O)(=O)c1ccccc1` (configuration not stated) | 62.33% |
| `COCC(=O)N1CCCN(Cc2cncn2C)CC1` | 5.288% |
| `COc1ccc(NC(=O)CNC(=O)C(C)(C)C)cc1` | -28.55% |
| `Cc1ccc(C(N)=O)c(O)c1` | -11.57% |
| `CN1CCCN(C(=O)COc2ccccc2Br)CC1` | 4.243% |
| `CCC(CC)C(O)CNC(=O)NCC1CC1` (configuration not stated) | 45.16% |
| `Cc1ccc(C(=O)NCCc2cncn2C)n1C` | -13.44% |
| `CC(C)n1ccc(CN2C(=O)CC(C)(C)C2=O)n1` | 66.84% |

4 of the entries, repeated:

CCC(C(=O)NCc1n[nH]c(N)n1)n1cccn1 (configuration not stated) gave 1.143%.
Cc1ccc(C(N)=O)c(O)c1 gave -11.57%.
O=C(NCc1ccc2c(c1)OCO2)n1ccnc1 gave 96.82%.
CN(CC(O)CN1CCOCC1)C1CCCCC1 (configuration not stated) gave -3.18%.